Results deposited as PubChem BioAssay AID1224830 (NIAID, 2016)

Aim: 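Genes whose knock-down alters the TNF-alpha reporter response to LPS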 (primary screen)
System: human THP-1 monocytic leukaemia cells, TNF dual-luciferase reporter clone, PMA-differentiated to macrophage-like cells
Knock-down reagent: siRNA pool against human genes, 50 nM
Time to read-out: LPS for 4 h, given about 3 days after siRNA transfection
Challenge: bacterial LPS (TLR4 ligand), 10 ng/ml
Measurement: 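TNF firefly reporter luminescence divided by renilla, normalised to the plate median, then turned into a robust z-score for each replicate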
Direction: TNF reporter robust z-score: higher = stronger TNF reporter response to LPS
Rule for the call: 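a well is active when its z-score exceeds 2.8 or falls below -1.5; control wells carry no call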
In all, the deposit lists about 18,000 reagents; this is a random part of them. About 2,900 of them (16%) count as active. 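Calls are made per well; low scores hint the gene aids the LPS response, high scores that it dampens it.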 A number with no mark means an inactive call. Repeated entries: four replicate wells of each siRNA pool.

The opening 6 entries, to show the layout:
no.	Target gene	TNF reporter robust z-score
1	CNTNAP5	-1.46
2	CNTNAP5	-1.21
3	CNTNAP5	-1.7 (active)
4	CNTNAP5	-1.87 (active)
5	OR5A1	0.6
6	OR5A1	1.13

Main list, from the first entry:
no.	Target gene	TNF reporter robust z-score
1	CNTNAP5	-1.46
2	CNTNAP5	-1.21
3	CNTNAP5	-1.7 (active)
4	CNTNAP5	-1.87 (active)
5	OR5A1	0.6
6	OR5A1	1.13
7	OR5A1	0.78
8	OR5A1	1.12
9	QTRT2	0.77
10	QTRT2	2.12
11	QTRT2	-0.48
12	QTRT2	-0.34
13	QRFPR	-0.7
14	QRFPR	0.97
15	QRFPR	-0.34
16	QRFPR	-0.19
17	SLC5A1	0.6
18	SLC5A1	-0.55
19	SLC5A1	0.21
20	SLC5A1	-0.24
21	SOX15	3.19 (active)
22	SOX15	3.31 (active)
23	SOX15	3.62 (active)
24	SOX15	4.42 (active)
25	SNX13	0.17
26	SNX13	-0.59
27	SNX13	-0.46
28	SNX13	-0.73
29	MRPL15	-0.98
30	MRPL15	-0.51
31	MRPL15	-0.49
32	MRPL15	-0.03
33	CCDC148	1.05
34	CCDC148	3.75 (active)
35	CCDC148	0.66
36	CCDC148	0.69
37	DMRT2	-0.67
38	DMRT2	1.29
39	DMRT2	0.83
40	DMRT2	0.58
41	NME7	-1.16
42	NME7	-0.12
43	NME7	-0.65
44	NME7	-0.61
45	ABHD17A	-0.6
46	ABHD17A	-0.34
47	ABHD17A	-0.44
48	ABHD17A	-0.96
49	LOC652436 (retired record)	-0.55
50	LOC652436 (retired record)	-0.62
51	LOC652436 (retired record)	0.04
52	LOC652436 (retired record)	-0.2
53	SLC2A3	0.12
54	SLC2A3	0.16
55	SLC2A3	0.64
56	SLC2A3	1.36
57	STAT5A	1.31
58	STAT5A	0.3
59	STAT5A	-0.02
60	STAT5A	0.86
61	RUFY3	0.38
62	RUFY3	-0.68
63	RUFY3	0.03
64	RUFY3	0.66
65	LIN7C	-0.84
66	LIN7C	-0.23
67	LIN7C	-1.26
68	LIN7C	-0.26
69	XKR4	-0.71
70	XKR4	-1.01
71	XKR4	-0.25
72	XKR4	0.09
73	IGF2BP2-AS1	-0.35
74	IGF2BP2-AS1	0.36
75	IGF2BP2-AS1	-0.36
76	IGF2BP2-AS1	-0.48
77	WFDC9	-0.54
78	WFDC9	-0.57
79	WFDC9	0.02
80	WFDC9	-0.87
81	ISM2	-0.68
82	ISM2	1.46
83	ISM2	-0.86
84	ISM2	-0.46
85	PPIP5K1	-0.26
86	PPIP5K1	-1.32
87	PPIP5K1	-0.28
88	PPIP5K1	0.77
89	MS4A15	-0.89
90	MS4A15	0.44
91	MS4A15	0.95
92	MS4A15	-0.19
93	ARHGEF3	-1.17
94	ARHGEF3	-0.97
95	ARHGEF3	-0.84
96	ARHGEF3	-1.26
97	UBA52	-0.18
98	UBA52	0.24
99	UBA52	-0.21
100	UBA52	-0.42
101	KCNA2	-1.83 (active)
102	KCNA2	0
103	KCNA2	-1.76 (active)
104	KCNA2	-0.86
105	PSMC4	-1.2
106	PSMC4	-1.15
107	PSMC4	-1.09
108	PSMC4	-0.77
109	PAWR	-1.05
110	PAWR	-0.69
111	PAWR	-0.85
112	PAWR	-0.74
113	ALG1L1P	0.66
114	ALG1L1P	1.09
115	ALG1L1P	-0.51
116	ALG1L1P	0.24
117	RAB5A	-1.01
118	RAB5A	-0.5
119	RAB5A	-0.96
120	RAB5A	-0.46
121	FBH1	-0.36
122	FBH1	-0.55
123	FBH1	-0.84
124	FBH1	-0.88
125	NDUFAB1	0
126	NDUFAB1	-0.05
127	NDUFAB1	0.05
128	NDUFAB1	0.65
129	DHRS4L1	0.41
130	DHRS4L1	-0.12
131	DHRS4L1	0.48
132	DHRS4L1	1.8
133	KCNK6	-1.41
134	KCNK6	-1.22
135	KCNK6	-0.81
136	KCNK6	-1.14
137	ITGA2	-0.09
138	ITGA2	0.78
139	ITGA2	-0.11
140	ITGA2	0.68
